Results from PubChem BioAssay (NCATS).
“And” between values parts separate entries of the source, which are not always exact repeats. Equal values may be shown once. Inconclusive results, whose numbers are uncertain, are shown with a selection of clear calls. For part of these data: Potencies beside an inconclusive call are fits to weak or partial responses and may not hold up. For part of these data: “Side channel” marks fits to a control or component signal instead of the main read-out. The source made the active and inactive calls. Unless noted, calls follow the shape of the dose curve; as a rule, active = well fitted curve in the direction sought with a large enough effect; inconclusive = small, poorly fitted or top-dose-only effect, or another doubt; inactive = no such curve, though single readings can be large; an effect the other way counts as inactive or inconclusive.

The chains behind the UniProt entries cited, without tags or fusion partners. Where a name states a change or a piece, a line headed by the entry shows the natural chain unless it says otherwise.
UniProt Q07343: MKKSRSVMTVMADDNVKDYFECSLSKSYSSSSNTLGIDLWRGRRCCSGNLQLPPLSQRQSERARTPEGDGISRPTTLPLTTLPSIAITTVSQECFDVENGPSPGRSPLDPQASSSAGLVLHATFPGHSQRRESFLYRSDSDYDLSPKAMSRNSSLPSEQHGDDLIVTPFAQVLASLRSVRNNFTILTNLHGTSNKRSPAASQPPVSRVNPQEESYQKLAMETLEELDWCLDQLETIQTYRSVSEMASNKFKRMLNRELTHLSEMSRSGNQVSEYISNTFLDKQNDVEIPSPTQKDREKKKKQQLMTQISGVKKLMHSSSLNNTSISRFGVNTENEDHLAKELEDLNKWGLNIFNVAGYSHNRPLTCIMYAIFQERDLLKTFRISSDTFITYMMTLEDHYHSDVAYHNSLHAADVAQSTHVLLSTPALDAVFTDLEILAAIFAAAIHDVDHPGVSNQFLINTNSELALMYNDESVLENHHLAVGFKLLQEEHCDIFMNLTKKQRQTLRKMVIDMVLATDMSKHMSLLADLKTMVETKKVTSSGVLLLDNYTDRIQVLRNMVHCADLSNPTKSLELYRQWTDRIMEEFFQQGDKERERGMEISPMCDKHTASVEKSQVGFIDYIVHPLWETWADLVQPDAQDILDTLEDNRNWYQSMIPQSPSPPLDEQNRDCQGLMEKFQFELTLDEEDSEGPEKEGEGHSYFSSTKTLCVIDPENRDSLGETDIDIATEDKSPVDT
UniProt P08482: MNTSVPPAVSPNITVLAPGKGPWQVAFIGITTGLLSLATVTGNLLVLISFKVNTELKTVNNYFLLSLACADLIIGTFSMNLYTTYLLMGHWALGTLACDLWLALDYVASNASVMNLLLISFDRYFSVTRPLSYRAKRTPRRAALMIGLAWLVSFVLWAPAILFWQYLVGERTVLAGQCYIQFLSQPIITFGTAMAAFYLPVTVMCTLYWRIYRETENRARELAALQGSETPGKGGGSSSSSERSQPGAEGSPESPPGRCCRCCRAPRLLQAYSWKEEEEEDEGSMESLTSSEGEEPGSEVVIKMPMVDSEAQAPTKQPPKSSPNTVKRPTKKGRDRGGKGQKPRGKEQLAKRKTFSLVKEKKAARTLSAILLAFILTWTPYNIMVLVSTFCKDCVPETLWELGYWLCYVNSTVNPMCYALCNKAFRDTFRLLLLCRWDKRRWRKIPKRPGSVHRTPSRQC
UniProt P02791: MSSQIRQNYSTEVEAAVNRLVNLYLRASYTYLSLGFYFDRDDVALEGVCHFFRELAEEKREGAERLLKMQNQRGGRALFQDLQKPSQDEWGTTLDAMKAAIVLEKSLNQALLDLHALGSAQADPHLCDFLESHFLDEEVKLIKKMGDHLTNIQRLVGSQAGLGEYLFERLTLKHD
UniProt P54132: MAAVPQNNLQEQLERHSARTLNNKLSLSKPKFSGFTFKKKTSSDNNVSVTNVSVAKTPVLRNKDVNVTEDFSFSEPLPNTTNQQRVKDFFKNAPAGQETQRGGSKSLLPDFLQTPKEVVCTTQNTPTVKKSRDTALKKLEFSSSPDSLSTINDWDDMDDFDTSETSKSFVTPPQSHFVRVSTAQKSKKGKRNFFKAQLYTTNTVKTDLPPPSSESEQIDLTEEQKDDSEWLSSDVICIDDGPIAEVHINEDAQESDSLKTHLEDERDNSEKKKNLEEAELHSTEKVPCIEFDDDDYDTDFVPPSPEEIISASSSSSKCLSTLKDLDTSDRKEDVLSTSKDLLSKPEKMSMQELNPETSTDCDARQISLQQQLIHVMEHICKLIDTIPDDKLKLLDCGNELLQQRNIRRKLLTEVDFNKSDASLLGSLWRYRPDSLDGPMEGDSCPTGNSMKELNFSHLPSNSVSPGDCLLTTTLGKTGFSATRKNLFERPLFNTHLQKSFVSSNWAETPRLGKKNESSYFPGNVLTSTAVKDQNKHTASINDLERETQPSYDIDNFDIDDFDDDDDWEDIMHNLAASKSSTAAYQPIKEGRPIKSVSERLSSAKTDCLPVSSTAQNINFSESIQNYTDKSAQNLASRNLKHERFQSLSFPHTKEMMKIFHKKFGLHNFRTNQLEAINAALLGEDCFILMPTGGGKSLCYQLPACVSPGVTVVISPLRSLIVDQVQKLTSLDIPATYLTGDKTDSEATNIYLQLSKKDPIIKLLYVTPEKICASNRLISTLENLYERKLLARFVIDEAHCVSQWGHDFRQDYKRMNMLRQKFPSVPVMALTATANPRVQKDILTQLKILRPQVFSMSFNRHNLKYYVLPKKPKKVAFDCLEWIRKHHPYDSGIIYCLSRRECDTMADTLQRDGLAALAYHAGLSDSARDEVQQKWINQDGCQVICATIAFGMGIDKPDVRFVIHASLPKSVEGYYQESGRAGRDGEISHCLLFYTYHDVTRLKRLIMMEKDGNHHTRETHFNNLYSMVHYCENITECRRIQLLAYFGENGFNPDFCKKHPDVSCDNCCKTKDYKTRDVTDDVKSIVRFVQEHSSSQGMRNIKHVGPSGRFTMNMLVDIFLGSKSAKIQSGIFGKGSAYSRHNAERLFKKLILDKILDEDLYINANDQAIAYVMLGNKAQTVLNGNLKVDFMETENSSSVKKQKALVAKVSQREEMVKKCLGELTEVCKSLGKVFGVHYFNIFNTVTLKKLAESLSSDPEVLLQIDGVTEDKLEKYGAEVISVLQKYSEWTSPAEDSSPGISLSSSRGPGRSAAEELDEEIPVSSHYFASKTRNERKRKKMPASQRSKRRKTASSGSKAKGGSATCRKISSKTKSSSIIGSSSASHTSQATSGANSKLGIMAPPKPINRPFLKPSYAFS
UniProt O15648: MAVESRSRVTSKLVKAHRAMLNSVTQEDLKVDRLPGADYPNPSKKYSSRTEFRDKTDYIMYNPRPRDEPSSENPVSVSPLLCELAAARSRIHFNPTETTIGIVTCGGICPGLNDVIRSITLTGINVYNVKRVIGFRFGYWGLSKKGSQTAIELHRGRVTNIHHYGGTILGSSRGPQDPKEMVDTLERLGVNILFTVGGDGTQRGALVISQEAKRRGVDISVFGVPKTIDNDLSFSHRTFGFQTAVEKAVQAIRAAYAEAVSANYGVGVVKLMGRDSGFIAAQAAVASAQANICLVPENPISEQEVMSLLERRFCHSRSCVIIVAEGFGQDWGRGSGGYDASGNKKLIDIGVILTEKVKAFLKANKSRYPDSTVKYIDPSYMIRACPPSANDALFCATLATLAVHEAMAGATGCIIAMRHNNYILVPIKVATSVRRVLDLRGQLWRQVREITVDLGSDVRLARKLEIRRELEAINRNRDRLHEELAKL
UniProt O89049, whole entry, looked up: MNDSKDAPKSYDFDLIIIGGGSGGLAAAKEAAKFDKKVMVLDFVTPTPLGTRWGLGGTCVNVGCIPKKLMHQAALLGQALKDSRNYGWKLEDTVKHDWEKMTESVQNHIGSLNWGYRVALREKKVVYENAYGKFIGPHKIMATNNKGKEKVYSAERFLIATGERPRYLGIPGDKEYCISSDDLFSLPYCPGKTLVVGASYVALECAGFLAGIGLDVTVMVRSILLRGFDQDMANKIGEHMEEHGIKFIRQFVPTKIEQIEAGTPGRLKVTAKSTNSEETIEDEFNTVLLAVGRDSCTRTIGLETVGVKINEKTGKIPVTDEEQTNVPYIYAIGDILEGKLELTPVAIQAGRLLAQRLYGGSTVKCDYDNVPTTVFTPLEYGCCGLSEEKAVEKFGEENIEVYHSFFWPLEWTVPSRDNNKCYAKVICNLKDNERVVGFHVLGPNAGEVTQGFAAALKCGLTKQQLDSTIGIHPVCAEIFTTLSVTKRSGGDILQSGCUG
UniProt P21728, whole entry, looked up: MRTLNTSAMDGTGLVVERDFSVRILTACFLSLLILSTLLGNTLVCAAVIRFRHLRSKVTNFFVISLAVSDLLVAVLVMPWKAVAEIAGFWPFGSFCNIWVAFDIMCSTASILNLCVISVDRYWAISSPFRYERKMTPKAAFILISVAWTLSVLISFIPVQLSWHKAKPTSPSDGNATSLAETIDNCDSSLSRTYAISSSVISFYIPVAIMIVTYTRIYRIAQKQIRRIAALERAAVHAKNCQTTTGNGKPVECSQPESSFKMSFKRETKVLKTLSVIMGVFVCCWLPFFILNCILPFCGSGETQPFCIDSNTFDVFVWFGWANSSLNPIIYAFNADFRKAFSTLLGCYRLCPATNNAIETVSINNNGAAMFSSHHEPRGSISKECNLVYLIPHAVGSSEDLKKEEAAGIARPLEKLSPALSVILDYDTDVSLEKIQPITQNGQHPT
UniProt Q9HC16: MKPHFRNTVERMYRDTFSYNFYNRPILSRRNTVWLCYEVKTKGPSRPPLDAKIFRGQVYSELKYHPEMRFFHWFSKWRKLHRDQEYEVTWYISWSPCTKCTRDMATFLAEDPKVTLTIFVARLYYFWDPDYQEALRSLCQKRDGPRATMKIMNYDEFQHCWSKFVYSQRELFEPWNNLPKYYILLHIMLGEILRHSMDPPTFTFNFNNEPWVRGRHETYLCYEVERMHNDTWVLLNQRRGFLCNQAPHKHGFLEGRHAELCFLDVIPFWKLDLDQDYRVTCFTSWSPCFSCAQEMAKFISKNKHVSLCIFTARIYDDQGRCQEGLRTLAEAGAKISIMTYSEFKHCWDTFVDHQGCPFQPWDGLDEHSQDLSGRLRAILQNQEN
UniProt P20594: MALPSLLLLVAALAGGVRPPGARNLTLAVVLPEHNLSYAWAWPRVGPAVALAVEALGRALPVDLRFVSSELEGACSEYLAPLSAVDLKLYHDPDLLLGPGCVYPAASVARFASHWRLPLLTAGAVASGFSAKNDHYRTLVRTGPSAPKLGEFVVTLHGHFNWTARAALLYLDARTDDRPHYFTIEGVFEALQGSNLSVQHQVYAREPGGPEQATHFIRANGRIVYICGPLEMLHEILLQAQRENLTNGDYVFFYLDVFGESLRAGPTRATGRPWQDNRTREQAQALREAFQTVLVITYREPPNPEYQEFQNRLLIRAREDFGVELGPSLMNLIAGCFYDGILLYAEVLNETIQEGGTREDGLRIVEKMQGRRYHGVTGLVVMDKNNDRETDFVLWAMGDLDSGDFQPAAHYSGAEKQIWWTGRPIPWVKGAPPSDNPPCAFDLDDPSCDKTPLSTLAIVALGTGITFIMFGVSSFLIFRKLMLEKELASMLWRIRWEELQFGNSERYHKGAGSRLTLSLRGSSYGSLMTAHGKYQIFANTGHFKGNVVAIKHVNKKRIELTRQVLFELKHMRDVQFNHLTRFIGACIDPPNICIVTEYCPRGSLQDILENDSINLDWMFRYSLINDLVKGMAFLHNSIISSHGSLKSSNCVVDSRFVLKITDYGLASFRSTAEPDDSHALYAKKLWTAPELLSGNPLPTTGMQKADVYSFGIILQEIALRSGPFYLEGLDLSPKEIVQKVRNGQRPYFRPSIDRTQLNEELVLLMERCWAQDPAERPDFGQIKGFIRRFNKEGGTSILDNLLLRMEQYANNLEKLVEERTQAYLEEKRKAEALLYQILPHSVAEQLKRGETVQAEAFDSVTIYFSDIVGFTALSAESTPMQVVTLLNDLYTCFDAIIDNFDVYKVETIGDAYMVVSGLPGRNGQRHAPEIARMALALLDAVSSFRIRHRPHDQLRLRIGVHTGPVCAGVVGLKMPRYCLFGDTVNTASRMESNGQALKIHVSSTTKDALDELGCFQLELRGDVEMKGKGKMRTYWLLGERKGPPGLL
UniProt Q9BV86: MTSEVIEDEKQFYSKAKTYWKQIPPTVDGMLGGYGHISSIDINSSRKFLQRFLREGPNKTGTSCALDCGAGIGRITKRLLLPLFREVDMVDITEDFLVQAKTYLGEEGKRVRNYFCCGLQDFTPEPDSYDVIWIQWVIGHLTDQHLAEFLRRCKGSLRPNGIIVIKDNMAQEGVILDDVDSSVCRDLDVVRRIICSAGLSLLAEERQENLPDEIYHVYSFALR
UniProt Q99828: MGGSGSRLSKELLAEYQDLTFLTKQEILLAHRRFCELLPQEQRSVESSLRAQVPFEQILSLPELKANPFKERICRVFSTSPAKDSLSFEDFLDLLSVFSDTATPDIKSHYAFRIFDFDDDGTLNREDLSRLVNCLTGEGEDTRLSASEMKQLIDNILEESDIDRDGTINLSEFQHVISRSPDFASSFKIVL

Tests used:
[1] = Stat Signaling Pathway (AID 446; active = well fitted curve in either direction with a large enough effect, not every such curve was filed as active; inconclusive = small, poorly fitted or top-dose-only effect, or another doubt;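 also: ME-180 cervical cancer cells given 40 pM IL-6 alongside compound; SIE-controlled beta-lactamase reporter measured as 460/530 nm FRET emission ratio; % is scaled to controls: 0 for no effect and ±100 for the full control effect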); conditions: ME-180 SIE beta-lactamase reporter, IL-6 stimulated, 5 h; at 38 µM (top of the series)
Outline: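 Compound effects on IL-6-induced STAT reporter activity were measured in ME-180 cells. After overnight culture, cells were co-treated with 40 pM IL-6 for 5 hrs before beta-lactamase substrate loading at room temperature.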

[2] = biological target: Mitogen-activated protein kinase 10 (Mus musculus) (UniProt Q61831); assay: JNK3 AlphaScreen Assay (AID 530; active = well fitted curve in either direction with a large enough effect, not every such curve was filed as active; inconclusive = small, poorly fitted or top-dose-only effect, or another doubt;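 also: kinase came from lysate of stimulated human HepG2 cells; potency is read from the fitted curve at half-maximal effect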); conditions: JNK3 lysate, c-Jun phosphorylation; activity change, negative = inhibition: at 57.1 µM (top of the series)
Outline: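 HepG2 lysate (IL-1b/TNFa pre-activated) + biotin-GST-cJun 1-79 + anti-pSer73 cJun; cpd titration, 15 min RT; ATP 10 uM start; Tris pH 7.6, MgCl2, DTT, vanadate; beads in EDTA buffer; AlphaScreen.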

[3] = biological target: 3',5'-cyclic-AMP phosphodiesterase 4B (Homo sapiens) (UniProt Q07343); assay: qHTS Assay for Inhibitors of PDE-IV (AID 607; active = well fitted activation curve with a large enough effect in the main read-out, with a control signal flat, not every such curve was filed as active; inconclusive = small, poorly fitted or top-dose-only effect, or effect the other way, or a change in a side signal; also: potency is read from the fitted curve at half-maximal effect); conditions: HEK293 ACTOne CNG channel cells, membrane potential fluorescence; activation (PDE inhibition): at 22.9 µM (top of the series)
Outline: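 ACTOne HEK293 cells carry a modified cAMP-gated CNG channel and express endogenous PDE4; plated 1000 cells/well, compounds up to 22.9 uM final. Membrane-potential dye fluorescence (ex 535/em 590) was read; parental cells received 10 uM forskolin + 100 uM RO 20-1724.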

[4] = qHTS Assay for Identification of Small Molecule Antagonists for NFkB Signaling Pathway (AID 895; active = well fitted inhibition curve with a large enough effect in the signal ratio, with a control signal flat, not every such curve was filed as active; inconclusive = small, poorly fitted or top-dose-only effect, or effect the other way, or a change in a side signal; the % refers to the signal ratio; also: potency is read from the fitted curve at half-maximal effect); conditions: NFkB beta-lactamase reporter cells, FRET ratio 460/530, stimulated with 10 pM TNF alpha; activity change, negative = inhibition: at 38.3 µM (top of the series)
Outline: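 ME-180 NFkB-bla cells (beta-lactamase under NFkB response element), plated overnight, treated with compound then 10 pM TNF alpha (about EC50) for 5 hrs at 37 C. LiveBLAzer FRET read at 460/530 nm emission, 405 nm excitation.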

[5] = qHTS Assay for Identification of Small Molecule Agonists for Thrombopoietin (TPO) Signaling Pathway (AID 917); also: potency is read from the fitted curve at half-maximal effect
Outline: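 First, Ba/F3 cells with human TPO receptor were held overnight without IL-3. Next, compounds and TPO (26 pM final) were added. After 24 hrs at 37 C, luciferase detection reagent was added and luminescence measured following 10 min at room temperature.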

[6] = biological target: Muscarinic acetylcholine receptor M1 (Rattus norvegicus) (UniProt P08482); assay: qHTS Assay for Antagonists of Acetylcholine Muscarinic M1 Receptor: Measurement of IP-One Response (AID 944); also: nearly all actives have a fitted effect of over 75% in size
[7] = qHTS for differential inhibitors of proliferation of Plasmodium falciparum line 3D7 (AID 1876); also: potency is read from the fitted curve at half-maximal effect
[8] = qHTS for differential inhibitors of proliferation of Plasmodium falciparum line Dd2 (AID 1882); conditions: Potency: Plasmodium falciparum Dd2 proliferation inhibition; also: potency is read from the fitted curve at half-maximal effect; nearly all actives have a fitted effect of over 65% in size
Outline: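 RBC culture, 0.3% parasitemia / 2.5% Hct final; cpd added by pin tool in DMSO; 72 h, 37 C, 5% CO2; lysis buffer + SYBR Green I, o/n RT dark; FI 485/535; norm. to artemisinin 0.29 uM and DMSO.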

[9] = biological target: Ferritin light chain (Equus caballus) (UniProt P02791); assay: qHTS Validation Assay for Identification of Novel General Anesthetics (AID 2323); also: potency is read from the fitted curve at half-maximal effect
Outline: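 Competitive displacement of profluorescent 1-aminoanthracene (1-AMA, 50% saturated solution in PBS) from 10 uM horse-spleen apoferritin. Compounds incubated 10 min at room temperature; fluorescence read at 380 nm excitation/535 nm emission, normalized to free 1-AMA and complex, fitted with four-parameter Hill equation.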

[10] = biological target: RecQ-like DNA helicase BLM (Homo sapiens) (UniProt P54132); assay: qHTS Validation Assay for Inhibitors of Bloom's syndrome helicase (BLM) (AID 2364); also: potency is read from the fitted curve at half-maximal effect
Outline: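 50 nM BLM preincubated 15 min at room temperature with compound in pH 8.0 Tris buffer containing 2.5 ug/ml poly(dI-dC); started with 200 nM TAMRA/BHQ-2 forked duplex and 2 mM ATP (final). Unwinding read as TAMRA fluorescence increase, two reads 2 h apart.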

[11] = Validation screen for small molecules that induce DNA re-replication in MCF 10A normal breast cells (AID 463097); also: potency is read from the fitted curve at half-maximal effect; nearly all actives have a fitted effect of over 60% in size
Outline: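 Readout: Hoechst nuclear fluorescence intensity, 405 ex / 500-530 em, by scanning plate imager; re-replication scored as increase in nuclei with elevated DNA content. Cells exposed to compound 48 hr, 37 C, 5% CO2 beforehand.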

[12] = biological target: ATP-dependent 6-phosphofructokinase (Trypanosoma brucei brucei) (UniProt O15648); assay: qHTS Validation Assay to Find Inhibitors of T. brucei phosphofructokinase (AID 485368); conditions: activity change, negative = inhibition: at 57.5 µM (top of the series); also: potency is read from the fitted curve at half-maximal effect
Outline: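 Inhibition derived from concentration-response curves of luminescence, ranked by r2, response size and curve class; the underlying reaction used 1.25 nM PFK, 0.1 mM ATP and 0.5 mM F6P, 45 min, room temperature.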

[13] = Quantitative high throughput screen for delayed death inhibitors of the malarial parasite plastid, 96 hour incubation (AID 488745); also: potency is read from the fitted curve at half-maximal effect; nearly all actives have a fitted effect of over 70% in size
Outline: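 Luciferase-expressing P. falciparum, infected RBCs 2% Hct/0.1% parasitemia (final); 96 h cpd exposure, 37 C, 5% CO2; RPMI 1640 + 0.5% Albumax, bicarbonate, gentamycin. Readout: luminescence loss = growth inhibition.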

[14] = biological target: Thioredoxin reductase 1, cytoplasmic (Rattus norvegicus) (UniProt O89049); assay: qHTS Assay for Inhibitors of Mammalian Selenoprotein Thioredoxin Reductase 1 (TrxR1) (AID 488773); conditions: Potency: inhibition; also: potency is read from the fitted curve at half-maximal effect; nearly all actives have a fitted effect of over 40% in size
Outline: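 Inhibition is scored from the loss of NADPH fluorescence between first and last reads of an 8-min kinetic run. Selenite (400 uM) was the substrate, added after 15 min compound preincubation at room temperature.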

[15] = biological target: D(1A) dopamine receptor (Homo sapiens) (UniProt P21728); assay: HTS Assay for Allosteric Agonists of the Human D1 Dopamine Receptor: Primary Screen for Antagonists (AID 488983); conditions: D1 receptor cell assay, antagonist mode, qHTS titration; activity change, negative = inhibition: at 41.8 µM (top of the series);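 also: calcium flux response to an EC80 dopamine challenge measured with no-wash dye; % is scaled to controls: 0 for no effect and ±100 for the full control effect; nearly all actives have a fitted effect of over 65% in size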
Outline: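 Calcium flux readout, no-wash dye, inducible HEK293 T-REx D1 line (force-coupled). Compound added after 10 s baseline, 180 s kinetic read; then dopamine at EC80, further 180 s read.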

[16] = Validation screen for small molecules that induce DNA re-replication in SW480 colon adenocarcinoma cells (AID 504364); also: potency is read from the fitted curve at half-maximal effect
Outline: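 Read-out: total Hoechst intensity of nuclei by fluorescence scanning imager; hits raise the fraction of nuclei with elevated DNA content. Cells received compound for 48 hr at 37 C before a 40 min stain.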

[17] = qHTS for Inhibitors of ATXN expression: Validation of Cytotoxic Assay (AID 588349); also: potency is read from the fitted curve at half-maximal effect
Outline: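 Cytotoxicity counter-screen: HEK293 cells exposed to compound titrations, 72 hr, 37 degrees C. Read-out is intracellular ATP (CellTiter Glo luminescence) as a viability measure.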

[18] = qHTS for Inhibitors of ATXN expression: Validation (AID 588378); also: potency is read from the fitted curve at half-maximal effect; nearly all actives have a fitted effect of over 75% in size
Outline: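 Luminescence from an ATXN2-FFLuc reporter in HEK293 cells served as read-out after 24 h compound treatment at 37 degrees C; CellTiter-Fluor fluorescence was recorded first to assess viability.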

[19] = biological target: DNA dC->dU-editing enzyme APOBEC-3G (Homo sapiens) (UniProt Q9HC16); assay: qHTS for inhibitors of Vif-A3G interactions: Validation (AID 588379); also: potency is read from the fitted curve at half-maximal effect
Outline: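 Yellow fluorescence (Ex 488, Em 500-530) of Vif-coexpressing HeLa A3G-eYFP cells, scanned by Acumen cytometer, reports blocked A3G degradation. Cells plated at 700/well overnight at 37 deg C before compound addition, then a further overnight compound incubation at 37 deg C.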

[20] = qHTS for Activators of Parkin Expression: LOPAC Validation Assay (NLuc Reporter) (AID 720572; also: potency is read from the fitted curve at half-maximal effect)
Outline: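 NLuc signal, read 10 min after reagent and following a prior FLuc read, is normalized to DMSO (0) and positive controls (100%). Cells: neuronal Parkin-promoter coincidence reporter line; compounds tested 7-point, 24 h, 37 C, 5% CO2.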

[21] = biological target: Atrial natriuretic peptide receptor 2 (Homo sapiens) (UniProt P20594); assay: Natriuretic polypeptide receptor (hNpr2) antagonism - Pilot subtype selectivity assay (AID 1347050; calls by dose curve; also: % is scaled to controls: 0 for no effect and ±100 for the full control effect)
Outline: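 Luminescence from a genetically encoded cGMP luciferase biosensor in hNpr2-expressing HEK293 cells is read before and 20 min after adding 1 nM hNppC. Test compounds, in interplate 1:5 titrations, are added 30-50 min ahead of the agonist.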

[22] = biological target: N-terminal Xaa-Pro-Lys N-methyltransferase 1 (Homo sapiens) (UniProt Q9BV86); assay: qHTS Assay for Inhibitors of N-terminal methyltransferase 1 (NTMT1): LOPAC validation of the NTMT1 SAHH-coupled ThioGlo3 Assay (AID 1347143);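 also: SAH from peptide methylation measured as thiol fluorescence via SAHH coupling and ThioGlo3; potency is read from the fitted curve at half-maximal effect; nearly all actives have a fitted effect of over 70% in size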
Outline: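 Steps: dispense 125nM NTMT1; pin-transfer test compounds at several concentrations, with 1uM RCC1-6 peptide as control; incubate 1 min; start with reagent holding 100uM SAM, 10uM SAHH, 15uM ThioGlo3; read at 0 and 30 min.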

[23] = tested on: Zika virus NS2B-NS3 protease; assay: Primary screen GU AMC qHTS for Zika virus inhibitors (AID 1347154); also: potency is read from the fitted curve at half-maximal effect; nearly all actives have a fitted effect of over 70% in size
Outline: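 Unlinked Zika NS2B hydrophilic domain–NS3 protease complex at 25 nM in 10 mM Tris-HCl pH 8.0, 0.01% Tween 20, with an AMC peptide substrate. Fluorescence change (340/450 nm) over 15 min at room temperature, normalized to controls, fitted to 4-parameter Hill.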

[24] = biological target: Lysine-specific demethylase 5B (Homo sapiens) (UniProt Q9UGL1); assay: Optimization screen for KDM5B Histone Demethylases FDH coupled qHTS against the LOPAC library (AID 1347166); conditions: KDM5B demethylation, FDH-coupled NADH fluorescence; activity, negative = inhibition: at 57.5 µM (top of the series) unless noted; also: potency is read from the fitted curve at half-maximal effect
Outline: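 KDM5BDeltaAP (200nM final) in 50mM HEPES pH 7.5, 0.01% Tween-20 was preincubated with compound for 10 min at room temperature. A substrate mix of 12.5uM H3K4Me3, 25uM a-ketoglutarate, ascorbate, Fe2+, NAD+ and formaldehyde dehydrogenase was then added. NADH fluorescence (340/450 nm) was read initially and after 30 min.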

[25] = biological target: Calcium and integrin-binding protein 1 (Homo sapiens) (UniProt Q99828); assay: Validation qHTS for Identification of Calcium Integrin Binding protein 1 (CIB1) Competitor (AID 1508618); also: % is scaled to controls: 0 for no effect and ±100 for the full control effect
Outline: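 CIB1-GST (1 uM final) in 5 mM HEPES pH 7.4, 125 mM NaCl, 5 mM CaCl2, 0.01% Tween20 was preincubated 15 min at room temperature with compound (up to 114 uM), then FITC-alphaIIb peptide (100 nM) added for 15 min; fluorescence polarization read.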

[26] = Primary qHTS for small molecule stabilizers of the endoplasmic reticulum resident proteome: Secreted ER Calcium Modulated Protein (SERCaMP) assay (AID 1508630); conditions: SH-SY5Y GLuc-SERCaMP (Gaussia luciferase released on ER calcium loss) secretion, thapsigargin, luminescence; activity change, negative = inhibition: at 38.4 µM (top of the series) unless noted; also: potency is read from the fitted curve at half-maximal effect
Outline: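 The SH-SY5Y reporter protocol was run at 3 concentrations up to 38.3 uM (primary) or 11 concentrations (follow-up): 16 h compound, 100 nM thapsigargin for 4 h, then extracellular luciferase luminescence.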

[27] = biological target: Rap guanine nucleotide exchange factor 3 (Homo sapiens) (UniProt O95398); assay: Confirmatory qHTS for antagonist of cAMP-regulated guanine nucleotide exchange factor 3 (EPAC1) (AID 1645880); also: potency is read from the fitted curve at half-maximal effect; nearly all actives have a fitted effect of over 55% in size
Outline: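 Released BODIPY-GDP fluoresces less than Rap1-bound BODIPY-GDP; the signal is followed at 480/540 nm at 5-min intervals over 30 min, after 5 min at room temperature. Reactions contain 100 nM EPAC1, 250 nM RAP1B-BODIPY-GDP and 50 uM GDP; results are normalized to ATA and DMSO.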

With C[C@H](NC(=O)/C(C#N)=C/c1ccc(O)c(O)c1)c1ccccc1 the activity, negative = inhibition [1] was inactive: -15.4% and inconclusive: -40.3% [inhibitor], the Potency [2] was inconclusive: 15.8 µM [inhibitor, single point] and inconclusive: 12.6 µM [inhibitor, partial curve, poor fit] and inconclusive: 15.8 µM [inhibitor, partial curve] and the Potency [3] was inconclusive: 12.6 µM [activator, partial curve] and inconclusive: 19 µM [activator, single point]. For the same compound, the Potency [4] was inconclusive: 12.6 µM [cytotoxic, side channel, single point], the Potency [5] was inconclusive: 5.01 µM [inhibitor, partial curve] and the Potency [6] was “inactive”. For the same compound, the Potency [7] was active: 14.1 µM, the Potency [8] was inconclusive: 14.1 µM [inhibitor, partial curve, poor fit] and the Potency [9] was inconclusive: 39.8 µM [inhibitor, partial curve]. For the same compound, the Potency [10] was inconclusive: 50.1 µM [inhibitor, partial curve], the Potency [11] was inconclusive: 2.51 µM [activator, full curve, poor fit] and the Potency [12] was inconclusive: 12 µM [falling, partial curve, poor fit]. For the same compound, the Potency [13] was inconclusive: 0.0131 µM [inhibitor, full curve, poor fit], the Potency [14] was inconclusive: 37.7 µM [inhibitor, single point] and the activity change, negative = inhibition [15] was inconclusive: 34.7% [activator]. For the same compound, the Potency [16] was inconclusive: 23.1 µM [activator, single point], the Potency [17] was inconclusive: 15.8 µM [cytotoxic, single point] and the Potency [18] was inconclusive: 11.2 µM [inhibitor, partial curve, poor fit]. The Potency [19] was inconclusive: 15 µM [inhibitor, partial curve], the Potency [20] was inconclusive: 16.4 µM [activator, partial curve] and the Potency [21] was “inactive”. For the same compound, the Potency [22] was active: 25.1 µM, the Potency [23] was inconclusive: 7.52 µM [inhibitor, partial curve] and the Potency [24] was inconclusive: 17.8 µM [inhibitor, partial curve, poor fit]. The Potency [25] was “inactive”, the Potency [26] was inconclusive: 2 µM [inhibitor, full curve, poor fit] and inconclusive: 14.1 µM [inhibitor, single point] and the Potency [27] was inconclusive: 31.4 µM [inhibitor, partial curve].
